{"source": "the supplement of paper PMC8728848", "assay_in_all_cases": "glycan array binding signal (z-score within array); higher = stronger binding", "details_in_all_cases": "glycan notation: IUPAC condensed, linker removed", "key": {"[1]": {"target": "Neu5Ac(a2-3)Gal(b1-3)GlcNAc(b1-6)GalNAc", "in_short": "(§1)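 The binding signal is a Z-score computed within each array and averaged over linkers. Arrays of the same protein sequence at different concentrations or buffers were also averaged together. Data originate from 3228 arrays in the Consortium for Functional Glycomics database, kept only where the protein sequence was available.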"}, "[2]": {"target": "Neu5Ac(a2-3)Gal(b1-3)GlcNAc6S", "in_short": "as §1"}, "[3]": {"target": "Neu5Ac(a2-3)Gal(b1-3)[Fuc(a1-4)]GlcNAc", "in_short": "as §1"}, "[4]": {"target": "Neu5Ac(a2-3)Gal(b1-3)[Fuc(a1-4)]GlcNAc(b1-3)Gal(b1-3)[Fuc(a1-4)]GlcNAc", "in_short": "as §1"}, "[5]": {"target": "Neu5Ac(a2-3)Gal(b1-3)[Fuc(a1-4)]GlcNAc(b1-3)Gal(b1-4)[Fuc(a1-3)]GlcNAc", "in_short": "as §1"}, "[6]": {"target": "Neu5Ac(a2-3)Gal(b1-3)[GlcNAc(b1-6)]GalNAc", "in_short": "as §1"}, "[7]": {"target": "Neu5Ac(a2-3)Gal(b1-3)[Neu5Ac(a2-6)]GalNAc", "in_short": "as §1"}, "[8]": {"target": "Neu5Ac(a2-3)Gal(b1-3)[Neu5Ac(a2-6)]GlcNAc(b1-3)[Fuc(a1-3)[Gal(b1-4)]GlcNAc(b1-6)]Gal(b1-4)Glc", "in_short": "as §1"}, "[9]": {"target": "Neu5Ac(a2-3)Gal(b1-3)]Neu5Ac(a2-3)Gal(b1-4)]GlcNAc", "in_short": "as §1"}, "Neu5Ac(a2-3)Gal(b1-4)Glc": {"target": "Neu5Ac(a2-3)Gal(b1-4)Glc", "in_short": "as §1"}, "[10]": {"target": "Neu5Ac(a2-3)Gal(b1-4)GlcNAc", "in_short": "as §1"}, "[11]": {"target": "Neu5Ac(a2-3)Gal(b1-4)GlcNAc(b1-2)Man", "in_short": "as §1"}, "[12]": {"target": "Neu5Ac(a2-3)Gal(b1-4)GlcNAc(b1-2)Man(a1-3)[GlcNAc(b1-4)][Neu5Ac(a2-3)Gal(b1-4)GlcNAc(b1-2)Man(a1-6)]Man(b1-4)GlcNAc(b1-4)GlcNAc", "in_short": "as §1"}, "[13]": {"target": "Neu5Ac(a2-3)Gal(b1-4)GlcNAc(b1-2)Man(a1-3)[Neu5Ac(a2-3)Gal(b1-4)GlcNAc(b1-2)Man(a1-6)]Man(b1-4)GlcNAc(b1-4)GlcNAc", "in_short": "as §1"}, "[14]": {"target": "Neu5Ac(a2-3)Gal(b1-4)GlcNAc(b1-2)Man(a1-3)[Neu5Ac(a2-3)Gal(b1-4)GlcNAc(b1-2)Man(a1-6)]Man(b1-4)GlcNAc(b1-4)[Fuc(a1-6)]GlcNAc", "in_short": "as §1"}, "[15]": {"target": "Neu5Ac(a2-3)Gal(b1-4)GlcNAc(b1-2)Man(a1-3)[Neu5Ac(a2-6)Gal(b1-4)GlcNAc(b1-2)Man(a1-6)]Man(b1-4)GlcNAc(b1-4)GlcNAc", "in_short": "as §1"}, "[16]": {"target": "Neu5Ac(a2-3)Gal(b1-4)GlcNAc(b1-2)[Neu5Ac(a2-3)Gal(b1-4)GlcNAc(b1-4)]Man(a1-3)[GlcNAc(b1-4)][Neu5Ac(a2-3)Gal(b1-4)GlcNAc(b1-2)[Neu5Ac(a2-3)Gal(b1-4)GlcNAc(b1-6)]Man(a1-6)]Man(b1-4)GlcNAc(b1-4)GlcNAc", "in_short": "as §1"}, "[17]": {"target": "Neu5Ac(a2-3)Gal(b1-4)GlcNAc(b1-2)[Neu5Ac(a2-3)Gal(b1-4)GlcNAc(b1-4)]Man(a1-3)[GlcNAc(b1-4)][Neu5Ac(a2-3)Gal(b1-4)GlcNAc(b1-4)Man(a1-6)]Man(b1-4)GlcNAc(b1-4)GlcNAc", "in_short": "as §1"}, "[18]": {"target": "Neu5Ac(a2-3)Gal(b1-4)GlcNAc(b1-2)[Neu5Ac(a2-3)Gal(b1-4)GlcNAc(b1-6)]Man(a1-6)[Neu5Ac(a2-3)Gal(b1-4)GlcNAc(b1-2)Man(a1-3)][GlcNAc(b1-4)]Man(b1-4)GlcNAc(b1-4)GlcNAc", "in_short": "as §1"}, "[19]": {"target": "Neu5Ac(a2-3)Gal(b1-4)GlcNAc(b1-3)Gal", "in_short": "as §1"}, "[20]": {"target": "Neu5Ac(a2-3)Gal(b1-4)GlcNAc(b1-3)Gal(b1-3)GlcNAc", "in_short": "as §1"}, "[21]": {"target": "Neu5Ac(a2-3)Gal(b1-4)GlcNAc(b1-3)Gal(b1-4)GlcNAc", "in_short": "as §1"}}, "note": "The list shows a part of the results."}
{"binder": "HA-00510 (Pseudomonas aeruginosa), Q02V39_PSEAB (protein) GVPIVNIATPNGAGLSNNHFRDYNVGANGLILNNATGKTQGTQLGGIILGNPNLKGQAAQVILNQVTGGNRSTLAGYTEVAGQSARVIVANPHGITCQGCGFINTPRATLTTGKPIMDGQRLERFQVDGGDIVVEGAELNVGNLEQFDLITRSAKLNAKLYAKNLNIVTGRNDVQADSLQATPRAADGSEKPQLAIDSSALGGMYAGAIRLVGTEQGVGVKLAGDMAASGGDIRIDASGKLSLAQASSQGDLKIAAQAVELNGKTYAGGSAEIRSAEELVNRQS", "values": [{"measurement": "glycan array binding signal (z-score)", "setting": "[1]", "result": -0.621}, {"measurement": "glycan array binding signal (z-score)", "setting": "[2]", "result": -0.526}, {"measurement": "glycan array binding signal (z-score)", "setting": "[3]", "result": -0.027}, {"measurement": "glycan array binding signal (z-score)", "setting": "[4]", "result": -0.302}, {"measurement": "glycan array binding signal (z-score)", "setting": "[5]", "result": -0.574}, {"measurement": "glycan array binding signal (z-score)", "setting": "[6]", "result": -0.796}, {"measurement": "glycan array binding signal (z-score)", "setting": "[7]", "result": 0.187}, {"measurement": "glycan array binding signal (z-score)", "setting": "[8]", "result": 1.21}, {"measurement": "glycan array binding signal (z-score)", "setting": "[9]", "result": 0.238}, {"measurement": "glycan array binding signal (z-score)", "setting": "Neu5Ac(a2-3)Gal(b1-4)Glc", "result": 0.867}, {"measurement": "glycan array binding signal (z-score)", "setting": "[10]", "result": -0.549}, {"measurement": "glycan array binding signal (z-score)", "setting": "[11]", "result": 1.18}, {"measurement": "glycan array binding signal (z-score)", "setting": "[12]", "result": 0.029}, {"measurement": "glycan array binding signal (z-score)", "setting": "[13]", "result": 1.19}, {"measurement": "glycan array binding signal (z-score)", "setting": "[14]", "result": 0.601}, {"measurement": "glycan array binding signal (z-score)", "setting": "[15]", "result": 0.265}, {"measurement": "glycan array binding signal (z-score)", "setting": "[16]", "result": 0.048}, {"measurement": "glycan array binding signal (z-score)", "setting": "[17]", "result": 0.115}, {"measurement": "glycan array binding signal (z-score)", "setting": "[18]", "result": -0.318}, {"measurement": "glycan array binding signal (z-score)", "setting": "[19]", "result": 0.339}, {"measurement": "glycan array binding signal (z-score)", "setting": "[20]", "result": -0.886}, {"measurement": "glycan array binding signal (z-score)", "setting": "[21]", "result": 0.193}]}
